{"source": "the supplement of paper PMC3334620", "note": "Whole data set: some 33,000 sequences, median “E-score (-0.5 to 0.5)” near -0.0034, cut for the highest 2% near 0.25. Some of the results follow."}
{"biological_target": "T1, Yap3 (UniProt P38749)", "T1 sequence": "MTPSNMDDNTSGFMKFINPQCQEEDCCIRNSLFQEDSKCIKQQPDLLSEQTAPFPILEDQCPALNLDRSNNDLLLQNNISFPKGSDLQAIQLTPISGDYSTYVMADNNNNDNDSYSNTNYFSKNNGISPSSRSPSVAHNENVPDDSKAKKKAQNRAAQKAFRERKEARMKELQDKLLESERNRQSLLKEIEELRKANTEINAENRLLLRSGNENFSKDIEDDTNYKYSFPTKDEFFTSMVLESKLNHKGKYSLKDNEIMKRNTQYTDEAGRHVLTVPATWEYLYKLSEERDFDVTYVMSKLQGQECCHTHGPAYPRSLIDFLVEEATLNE", "assay": "PBM E-score (8-mer binding enrichment) (E-score (-0.5 to 0.5)); higher = stronger / more preferred TF binding", "conditions": "protein concentration: 100 nM; construct: GST-full length", "summary_of_the_method": "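The E-score, a modified Wilcoxon-Mann-Whitney statistic, was computed by the Universal PBM Analysis Suite for every ungapped eight-base word pooled with its reverse complement. Scans behind it were normalised with masliner after bound GST-tagged yeast transcription factors were detected with fluorescent anti-GST. The proteins, at about 100-200 nM, had been applied to universal all-10-mer Agilent arrays made double-stranded by primer extension.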"}
{"sequence": "GGGGATGA", "PBM E-score": -0.00038}
{"sequence": "ACGACCTG", "PBM E-score": -0.18}
{"sequence": "CCCACACA", "PBM E-score": -0.0183}
{"sequence": "TAAGCCGA", "PBM E-score": 0.243}
{"sequence": "AAGTGAGC", "PBM E-score": 0.00127}
{"sequence": "ACTACCTC", "PBM E-score": 0.00605}
{"sequence": "CAAACAAC", "PBM E-score": 0.251}
{"sequence": "ATAAACCC", "PBM E-score": 0.14}
{"sequence": "ACTTCTGA", "PBM E-score": -0.0121}
{"sequence": "GTAAGCTA", "PBM E-score": 0.215}
{"sequence": "ACTTCGTA", "PBM E-score": -0.0349}
{"sequence": "AGCGTCAG", "PBM E-score": -0.119}
{"sequence": "AAGAATCG", "PBM E-score": 0.217}
{"sequence": "GACAACGC", "PBM E-score": 0.00149}
{"sequence": "CCTGATGA", "PBM E-score": -0.00067}
{"sequence": "ACTTACCC", "PBM E-score": 0.103}
{"sequence": "AGCGGGCA", "PBM E-score": -0.3}
{"sequence": "ATTTTGAG", "PBM E-score": 0.157}
{"sequence": "CGGTCACC", "PBM E-score": -0.364}
{"sequence": "ACAGTTTG", "PBM E-score": -0.00034}
{"sequence": "CAGTTGCG", "PBM E-score": 0.094}
{"sequence": "AAGCTAAA", "PBM E-score": 0.129}
{"sequence": "CGAGCCAG", "PBM E-score": -0.035}
{"sequence": "CCGTACAA", "PBM E-score": 0.0479}
{"sequence": "ATAACGTG", "PBM E-score": 0.161}
{"sequence": "ACACTGGT", "PBM E-score": 0.11}
{"sequence": "AATCCACC", "PBM E-score": 0.153}
{"sequence": "ACTGTACG", "PBM E-score": 0.0817}
{"sequence": "CAAGCCAG", "PBM E-score": -0.0253}
{"sequence": "AGCCTATC", "PBM E-score": 0.00597}
{"sequence": "CAAATGGA", "PBM E-score": -0.0854}
{"sequence": "ATGTCGCC", "PBM E-score": 0.02}
{"sequence": "AAAGTTAG", "PBM E-score": 0.206}
{"sequence": "CATACCAG", "PBM E-score": -0.0485}
{"sequence": "GCTGGTTA", "PBM E-score": 0.0998}
{"sequence": "ATATGAAG", "PBM E-score": 0.0557}
{"sequence": "CACTAGCC", "PBM E-score": -0.0154}
{"sequence": "ATGTGCAA", "PBM E-score": 0.059}
{"sequence": "CACAAAAA", "PBM E-score": 0.193}
{"sequence": "AACCGCCT", "PBM E-score": -0.026}
{"sequence": "AGCAGGTG", "PBM E-score": 0.184}
{"sequence": "ACGATTAT", "PBM E-score": 0.19}
{"sequence": "TAAGTAAA", "PBM E-score": 0.0756}
{"sequence": "AGGAAATG", "PBM E-score": 0.0772}
{"sequence": "AACAGCTC", "PBM E-score": -0.134}
{"sequence": "GCGCCCCA", "PBM E-score": -0.178}
{"sequence": "GACTGACA", "PBM E-score": 0.105}
{"sequence": "AAATCCGT", "PBM E-score": 0.132}
{"sequence": "GACTCTCC", "PBM E-score": -0.239}
{"sequence": "CAAAGAAA", "PBM E-score": 0.129}
{"sequence": "TTCCGGAA", "PBM E-score": -0.0427}
{"sequence": "CTACCGGC", "PBM E-score": -0.147}
{"sequence": "ACCTTGCG", "PBM E-score": 0.128}
{"sequence": "AAGCTACT", "PBM E-score": 0.0267}
{"sequence": "AGAGTCCA", "PBM E-score": -0.0323}
{"sequence": "ATTCGGTG", "PBM E-score": 0.09}
{"sequence": "GGGAGTCA", "PBM E-score": -0.198}
{"sequence": "ATTATCGG", "PBM E-score": -0.0264}
{"sequence": "ACCCCGGG", "PBM E-score": -0.238}
{"sequence": "CGTGCTCC", "PBM E-score": -0.117}
{"sequence": "GCTCCATA", "PBM E-score": -0.0182}
{"sequence": "ATAACCAT", "PBM E-score": 0.0623}
{"sequence": "CTGCAAGA", "PBM E-score": 0.0368}
{"sequence": "ACCCCATG", "PBM E-score": -0.0576}
{"sequence": "GACAGAAC", "PBM E-score": 0.0937}
{"sequence": "AGCGCTAT", "PBM E-score": 0.0919}
{"sequence": "AAGACCGA", "PBM E-score": 0.00128}
{"sequence": "CAGGTTTC", "PBM E-score": 0.0712}
{"sequence": "AGAACTCG", "PBM E-score": -0.00218}
{"sequence": "CCGGGTTA", "PBM E-score": -0.234}
{"sequence": "CGTTCTGA", "PBM E-score": -0.106}
{"sequence": "GCAGTTCA", "PBM E-score": -0.0245}
{"sequence": "CGTTACTA", "PBM E-score": 0.149}
{"sequence": "CTCTCACA", "PBM E-score": 0.109}
{"sequence": "CCGGAGGC", "PBM E-score": -0.307}
{"sequence": "AGTCACGA", "PBM E-score": -0.176}
{"sequence": "ATTCCTAC", "PBM E-score": 0.158}
{"sequence": "AAGTCAAT", "PBM E-score": 0.115}
{"sequence": "ATTATCCG", "PBM E-score": 0.166}
{"sequence": "GTGTGCCA", "PBM E-score": -0.0465}
{"sequence": "AAGCGCTC", "PBM E-score": -0.0695}
{"sequence": "CTGTGAGA", "PBM E-score": -0.0851}
{"sequence": "AGAGCAAC", "PBM E-score": -0.177}
{"sequence": "GATGACGC", "PBM E-score": 0.0228}
{"sequence": "AGTATTTG", "PBM E-score": 0.0477}
{"sequence": "CGGCAATC", "PBM E-score": -0.104}
{"sequence": "CGCATGGC", "PBM E-score": -0.0735}
{"sequence": "GAAAGACA", "PBM E-score": 0.217}
{"sequence": "GGTCGGGA", "PBM E-score": -0.135}
{"sequence": "ACATACCA", "PBM E-score": -0.119}
{"sequence": "CTCATTCC", "PBM E-score": 0.139}
{"sequence": "AACGTTAT", "PBM E-score": 0.164}
{"sequence": "ATTGCGGG", "PBM E-score": 0.0122}
{"sequence": "ACGTAACT", "PBM E-score": 0.169}
{"sequence": "CCGGATCG", "PBM E-score": -0.121}
{"sequence": "GTCTAGAC", "PBM E-score": -0.104}
{"sequence": "TAATTGCA", "PBM E-score": 0.195}
{"sequence": "ATACCGCC", "PBM E-score": -0.0222}
{"sequence": "ATCTGGCC", "PBM E-score": -0.0483}
{"sequence": "GTCTTGTA", "PBM E-score": -0.0728}
{"sequence": "TAATGGTA", "PBM E-score": -0.0483}
{"sequence": "CCTCCCAC", "PBM E-score": -0.157}
{"sequence": "AAATTGTA", "PBM E-score": 0.182}
{"sequence": "TAGTAACA", "PBM E-score": 0.184}
{"sequence": "CGCTATTC", "PBM E-score": 0.174}
{"sequence": "AATGCCTC", "PBM E-score": 0.00318}
{"sequence": "CAGCCGTC", "PBM E-score": -0.126}
{"sequence": "ATTGTATG", "PBM E-score": 0.151}
{"sequence": "ACGAGTTA", "PBM E-score": 0.104}
{"sequence": "CCCCAAGA", "PBM E-score": -0.106}
{"sequence": "GCAGCTTA", "PBM E-score": 0.0331}
{"sequence": "CATTTTAC", "PBM E-score": 0.332}
{"sequence": "ATTCATTC", "PBM E-score": 0.222}
{"sequence": "AGGCCCCT", "PBM E-score": -0.411}
{"sequence": "CACGGACA", "PBM E-score": -0.141}
{"sequence": "TACTGCGA", "PBM E-score": -0.0426}
{"sequence": "GACATATA", "PBM E-score": 0.195}
{"sequence": "TCAAACGA", "PBM E-score": -0.165}
{"sequence": "AAGCGTAA", "PBM E-score": -0.0172}
{"sequence": "CTCCATGA", "PBM E-score": -0.069}
{"sequence": "GAGACTTA", "PBM E-score": -0.13}
{"sequence": "AGCCATAA", "PBM E-score": 0.0277}
{"sequence": "AGACATCC", "PBM E-score": -0.152}
{"sequence": "AGGTTCTC", "PBM E-score": -0.146}
{"sequence": "CTTCGGCA", "PBM E-score": -0.166}
{"sequence": "AGATTACC", "PBM E-score": 0.155}
{"sequence": "ACCAAATC", "PBM E-score": 0.0358}
{"sequence": "CTTATGCA", "PBM E-score": 0.0746}
{"sequence": "GTAAGTAC", "PBM E-score": 0.14}
{"sequence": "AGCACGAA", "PBM E-score": 0.212}
{"sequence": "CCACCCAC", "PBM E-score": -0.128}
{"sequence": "AGTGAGGC", "PBM E-score": -0.105}
{"sequence": "GCCTGCTA", "PBM E-score": -0.119}
{"sequence": "GAGTAGAA", "PBM E-score": 0.117}
{"sequence": "GAAGACCA", "PBM E-score": -0.105}
{"sequence": "ATAAGAGC", "PBM E-score": 0.0623}
{"sequence": "CGGAAGGC", "PBM E-score": -0.277}
{"sequence": "ACGCGGCC", "PBM E-score": -0.0675}
{"sequence": "AACACTGG", "PBM E-score": 0.0398}
{"sequence": "CGATGGAA", "PBM E-score": -0.079}
{"sequence": "ACTCTTCC", "PBM E-score": -0.108}
{"sequence": "ACAGCCAG", "PBM E-score": 0.00109}
{"sequence": "ATTCATCA", "PBM E-score": 0.117}
{"sequence": "CAGCCCGA", "PBM E-score": -0.216}
{"sequence": "ACGCAGCG", "PBM E-score": -0.173}
{"sequence": "AGGTAGTA", "PBM E-score": 0.0606}
{"sequence": "GAGCAGCC", "PBM E-score": -0.2}
{"sequence": "GTATGTCA", "PBM E-score": 0.243}
{"sequence": "TCTAAACA", "PBM E-score": -0.0582}
{"sequence": "GCGCACCA", "PBM E-score": -0.0312}
{"sequence": "CCTGCTAA", "PBM E-score": -0.12}
{"sequence": "AGCCGTAA", "PBM E-score": 0.066}
{"sequence": "ACAAGATC", "PBM E-score": -0.145}
{"sequence": "AAGAGGAT", "PBM E-score": -0.0744}
{"sequence": "AAAATTGT", "PBM E-score": 0.244}
{"sequence": "CTATGCAG", "PBM E-score": -0.0654}
{"sequence": "CTTACGAA", "PBM E-score": 0.259}
{"sequence": "AGGAACAC", "PBM E-score": 0.0765}
{"sequence": "AGTCATTC", "PBM E-score": 0.0132}
{"sequence": "ATGCGACG", "PBM E-score": -0.0983}
{"sequence": "TACTCGGA", "PBM E-score": 0.0884}
{"sequence": "CACCTAGA", "PBM E-score": -0.182}
{"sequence": "AACCTACA", "PBM E-score": 0.124}
{"sequence": "TACTGGCA", "PBM E-score": -0.173}
{"sequence": "GAGGGCAA", "PBM E-score": 0.0305}
{"sequence": "CCCGGGAG", "PBM E-score": -0.312}
{"sequence": "GGACGTCC", "PBM E-score": 0.0464}
{"sequence": "CCCCAACC", "PBM E-score": -0.197}
{"sequence": "CTACATCC", "PBM E-score": 0.0357}
{"sequence": "CATAAGTC", "PBM E-score": 0.112}
{"sequence": "CAGTACAC", "PBM E-score": 0.00873}
{"sequence": "AATAGTGC", "PBM E-score": 0.0377}
